Data taken from article PMC5527465.
Results are given in words; binding and its absence hold for the method and conditions named. Binding seen in cells or lysates may run through a third protein.

The chains behind the UniProt entries cited, without tags or fusion partners.
UniProt P35222: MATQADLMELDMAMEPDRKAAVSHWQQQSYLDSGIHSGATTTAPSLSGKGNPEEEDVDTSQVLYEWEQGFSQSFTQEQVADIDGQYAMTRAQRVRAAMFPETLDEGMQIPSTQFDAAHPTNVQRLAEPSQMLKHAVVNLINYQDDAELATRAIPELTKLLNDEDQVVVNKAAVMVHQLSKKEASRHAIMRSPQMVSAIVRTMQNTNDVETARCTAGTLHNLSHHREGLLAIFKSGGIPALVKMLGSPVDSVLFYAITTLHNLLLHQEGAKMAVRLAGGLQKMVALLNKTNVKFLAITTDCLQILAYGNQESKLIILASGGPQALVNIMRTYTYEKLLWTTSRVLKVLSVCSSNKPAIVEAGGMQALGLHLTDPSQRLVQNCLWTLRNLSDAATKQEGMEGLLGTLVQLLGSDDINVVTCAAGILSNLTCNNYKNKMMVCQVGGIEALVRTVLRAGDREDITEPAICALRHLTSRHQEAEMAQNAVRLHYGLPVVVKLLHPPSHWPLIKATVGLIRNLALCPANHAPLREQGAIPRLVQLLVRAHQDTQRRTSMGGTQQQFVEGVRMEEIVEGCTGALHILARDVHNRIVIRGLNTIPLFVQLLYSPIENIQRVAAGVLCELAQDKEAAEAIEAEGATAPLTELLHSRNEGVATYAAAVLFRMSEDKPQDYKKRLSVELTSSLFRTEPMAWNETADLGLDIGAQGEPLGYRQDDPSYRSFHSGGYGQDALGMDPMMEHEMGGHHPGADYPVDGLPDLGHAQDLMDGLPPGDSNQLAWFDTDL

Target: T1, Zinc finger X‐chromosomal protein (ZFX) (human (in HCC cells)) (UniProt P17010)
T1 sequence: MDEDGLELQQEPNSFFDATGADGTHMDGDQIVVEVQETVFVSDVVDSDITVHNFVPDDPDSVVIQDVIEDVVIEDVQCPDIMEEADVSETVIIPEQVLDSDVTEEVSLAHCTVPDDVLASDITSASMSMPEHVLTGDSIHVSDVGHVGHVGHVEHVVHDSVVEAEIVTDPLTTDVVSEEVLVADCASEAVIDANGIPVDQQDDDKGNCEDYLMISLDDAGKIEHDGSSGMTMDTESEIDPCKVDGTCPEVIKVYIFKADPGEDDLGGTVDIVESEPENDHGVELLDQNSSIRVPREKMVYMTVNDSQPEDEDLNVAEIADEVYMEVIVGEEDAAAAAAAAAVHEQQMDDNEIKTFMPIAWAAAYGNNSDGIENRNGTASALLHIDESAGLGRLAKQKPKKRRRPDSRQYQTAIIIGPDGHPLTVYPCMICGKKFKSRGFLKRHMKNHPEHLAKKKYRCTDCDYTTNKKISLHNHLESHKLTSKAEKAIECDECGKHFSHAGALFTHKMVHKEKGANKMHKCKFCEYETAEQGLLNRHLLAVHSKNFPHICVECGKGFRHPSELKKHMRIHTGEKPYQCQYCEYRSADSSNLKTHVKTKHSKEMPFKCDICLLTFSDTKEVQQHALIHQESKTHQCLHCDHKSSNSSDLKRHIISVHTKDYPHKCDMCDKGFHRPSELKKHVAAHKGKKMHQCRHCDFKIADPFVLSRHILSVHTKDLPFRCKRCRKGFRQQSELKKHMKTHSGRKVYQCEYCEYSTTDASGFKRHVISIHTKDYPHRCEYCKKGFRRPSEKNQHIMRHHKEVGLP
Test: co-IP; liver CSC or non‐CSC subsets of HCC cells; which protein was precipitated is not told; no figure shown

binding: no binding
Substance: β‐catenin (from UniProt P35222 1-781)
